Data source: PubChem BioAssay AID720505 (Drosophila RNAi Screening Center, 2013)

- Purpose: 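Genes needed for store-operated calcium entry in fly cells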 (primary screen)
- Cells: Drosophila S2R+ cells
- Reagent: long dsRNA against Drosophila genes
- Challenge: thapsigargin (2 µM) in calcium-free buffer to empty internal stores, then 2 mM calcium added back
- Measured: 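Fluo-4 signal in 384-well plates read on a FLIPR after thapsigargin (2 µM, calcium-free) store depletion and 2 mM calcium add-back; unnormalised mean endpoint per well; screen run twice, selected wells retested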
- Reading the numbers: calcium signal and retest calcium signal: higher = more calcium entry after store depletion
- Call rule: 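Knock-downs counted as hits when calcium entry dropped relative to STIM1 positive and Rho1 negative controls present on each plate; roughly 1500 genes called, with reductions of differing size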
- Meaning of the calls: active = called as lowering calcium entry; inactive = not called
The deposit covers about 20,000 reagents; below is a random part of those that have a named target and a result. In the full data, about 2,100 (10%) are marked active. 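Raw plate signals without normalisation; calls rest on control-based scores that were not deposited; replicate 2 separates called from uncalled poorly.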 Names joined by + are all predicted targets of the reagent. The record does not give: the amount of reagent, the time to read-out.

gene | DRSC id | calcium signal, replicate 1 | calcium signal, replicate 2 | retest calcium signal, replicate 1 | retest calcium signal, replicate 2 | activity call
CG32407 | DRSC09789 | 109 | 86.4 | – | – | inactive
Sox21b | DRSC10025 | 63.3 | 104 | 163 | 141 | active
Sox21b | DRSC10634 | 97.6 | 152 | – | – | inactive
Sox21b | DRSC22788 | 118 | 189 | – | – | inactive
Sox21b | DRSC23005 | 174 | 142 | – | – | inactive
trp | DRSC17088 | 163 | 144 | – | – | inactive
Uba4 | DRSC02194 | 187 | 143 | – | – | inactive
CG13427 | DRSC06389 | 135 | 121 | – | – | inactive
CG1317 | DRSC08305 | 130 | 93.8 | – | – | inactive
CG3527 | DRSC18307 | 146 | 101 | – | – | inactive
Cpr5C | DRSC18340 | 158 | 135 | 4797 | 126 | inactive
CG9372 | DRSC11068 | 115 | 113 | – | – | inactive
Dbp80 | DRSC22034 | 109 | 200 | – | – | inactive
Ccdc85 | DRSC00501 | 83.8 | 80.6 | – | – | inactive
Ccdc85 | DRSC23173 | 137 | 115 | – | – | inactive
CG13713 | DRSC08322 | 78.3 | 50.2 | – | – | inactive
CG1703 | DRSC19764 | 66.2 | 165 | – | – | active
Lcp65APsi | DRSC10342 | 172 | 119 | – | – | inactive
l(3)76BDm | DRSC11047 | 108 | 96.9 | – | – | inactive
Eig71Ej | DRSC11157 | 68.8 | 182 | – | – | inactive
Rpi | DRSC04583 | 102 | 86.3 | – | – | active
lncRNA:CR43314 | DRSC01216 | 214 | 126 | – | – | inactive
lncRNA:CR43314 | DRSC21354 | 151 | 102 | – | – | inactive
CG14071 | DRSC02374 | 123 | 154 | – | – | inactive
da | DRSC03517 | 171 | 182 | – | – | inactive
xmas-1 (retired record) | DRSC20386 | 90.5 | 119 | – | – | inactive
CG15233 | DRSC04967 | 179 | 114 | – | – | inactive
CG17104 | DRSC02573 | 77 | 95.8 | – | – | inactive
Svil | DRSC07981 | – | – | – | – | active
Svil | DRSC08296 | 146 | 86.4 | – | – | inactive
Svil | DRSC08332 | 116 | 79.5 | – | – | inactive
Svil | DRSC08333 | 111 | 57.4 | – | – | inactive
Svil | DRSC08494 | 96.5 | 83.3 | – | – | inactive
CG13603 | DRSC14606 | 116 | 160 | – | – | inactive
CR40450 + CG32767 | DRSC18387 | 83.8 | 82.3 | – | – | inactive
nerfin-1 | DRSC08729 | 83.8 | 97.4 | – | – | inactive
CR30029 | DRSC06724 | 109 | 133 | – | – | inactive
Megf8 | DRSC03058 | 142 | 215 | – | – | inactive
Rab2 | DRSC05017 | 186 | 96.6 | – | – | inactive
CG5107 | DRSC15716 | 113 | 98 | – | – | inactive
CG8320 + ATPCL | DRSC07147 | 100 | 127 | – | – | inactive
CG31288 | DRSC14667 | 262 | 132 | – | – | inactive
CG6621 | DRSC16076 | 115 | 120 | – | – | inactive
CG31778 | DRSC00283 | 121 | 183 | – | – | inactive
Vajk2 | DRSC02540 | 118 | 119 | – | – | inactive
CG6006 | DRSC15946 | 138 | 243 | – | – | inactive
CG3520 | DRSC04383 | 168 | 202 | – | – | inactive
Kank | DRSC05513 | 89.4 | 132 | – | – | inactive
Kank | DRSC05933 | 150 | 124 | – | – | inactive
Xrcc2 | DRSC19984 | 65.9 | 117 | – | – | active
TwdlL | DRSC16042 | 174 | 155 | – | – | inactive
CG31199 | DRSC15284 | 171 | 317 | – | – | inactive
emp | DRSC04019 | 115 | 90.9 | – | – | inactive
emp | DRSC04683 | 102 | 121 | – | – | inactive
Uba3 | DRSC06377 | 188 | 136 | – | – | inactive
Cad88C | DRSC15486 | 158 | 222 | – | – | inactive
CG13842 | DRSC14692 | 135 | 142 | – | – | inactive
CG32512 | DRSC20519 | 173 | 94.6 | 6442 | 140 | inactive
CG32512 | DRSC20551 | 154 | 105 | – | – | inactive
CG32512 | DRSC21401 | 180 | 95.9 | – | – | inactive
CG11369 | DRSC17779 | 71.5 | 309 | – | – | active
CG11251 | DRSC09825 | 111 | 121 | – | – | inactive
CG18269 | DRSC02660 | 123 | 125 | – | – | inactive
CG13097 | DRSC02199 | 93 | 94.4 | – | – | inactive
Gr92a | DRSC21631 | 126 | 89.3 | – | – | inactive
CG42346 | DRSC20622 | 180 | 112 | – | – | inactive
CG42346 | DRSC20644 | 171 | 88.1 | – | – | inactive
Rchy1 | DRSC02542 | 114 | 81.1 | – | – | inactive
Rchy1 | DRSC23118 | 119 | 170 | – | – | inactive
Gar1 | DRSC04441 | 63.9 | 216 | – | – | inactive
CG2224 | DRSC15429 | 154 | 144 | – | – | inactive
CG31323 | DRSC14901 | 220 | 112 | – | – | inactive
Inx5 | DRSC20051 | 151 | 113 | – | – | inactive
galla-1 | DRSC05987 | 71.9 | 101 | – | – | inactive
bgm | DRSC03495 | 96.7 | 107 | – | – | inactive
CG4511 | DRSC15589 | 160 | 85.1 | – | – | inactive
Pkd2 | DRSC02962 | 117 | 153 | – | – | inactive
CG7806 | DRSC03071 | 162 | 191 | – | – | inactive
ssp5 | DRSC14955 | 160 | 154 | – | – | inactive
CR43142 | DRSC00962 | 80.9 | 132 | – | – | inactive
Nlg4 | DRSC15108 | 149 | 96.9 | – | – | inactive
Nlg4 | DRSC15109 | 151 | 105 | – | – | inactive
Nlg4 | DRSC15700 | 147 | 109 | – | – | inactive
Nlg4 | DRSC15701 | 194 | 115 | – | – | inactive
Nlg4 | DRSC22243 | 33.9 | 190 | – | – | active

Already shown: entries from further up.
gene | DRSC id | calcium signal, replicate 1 | calcium signal, replicate 2 | retest calcium signal, replicate 1 | retest calcium signal, replicate 2 | activity call
CG5107 | DRSC15716 | 113 | 98 | – | – | inactive
CG8320 + ATPCL | DRSC07147 | 100 | 127 | – | – | inactive
CG31288 | DRSC14667 | 262 | 132 | – | – | inactive
CG6621 | DRSC16076 | 115 | 120 | – | – | inactive
CG31778 | DRSC00283 | 121 | 183 | – | – | inactive
Vajk2 | DRSC02540 | 118 | 119 | – | – | inactive
CG6006 | DRSC15946 | 138 | 243 | – | – | inactive
CG3520 | DRSC04383 | 168 | 202 | – | – | inactive
